## Screening data, single-dose tests

The chains behind the UniProt entries cited, without tags or fusion partners. Residues count along the entry.
UniProt I6X8D2, whole entry: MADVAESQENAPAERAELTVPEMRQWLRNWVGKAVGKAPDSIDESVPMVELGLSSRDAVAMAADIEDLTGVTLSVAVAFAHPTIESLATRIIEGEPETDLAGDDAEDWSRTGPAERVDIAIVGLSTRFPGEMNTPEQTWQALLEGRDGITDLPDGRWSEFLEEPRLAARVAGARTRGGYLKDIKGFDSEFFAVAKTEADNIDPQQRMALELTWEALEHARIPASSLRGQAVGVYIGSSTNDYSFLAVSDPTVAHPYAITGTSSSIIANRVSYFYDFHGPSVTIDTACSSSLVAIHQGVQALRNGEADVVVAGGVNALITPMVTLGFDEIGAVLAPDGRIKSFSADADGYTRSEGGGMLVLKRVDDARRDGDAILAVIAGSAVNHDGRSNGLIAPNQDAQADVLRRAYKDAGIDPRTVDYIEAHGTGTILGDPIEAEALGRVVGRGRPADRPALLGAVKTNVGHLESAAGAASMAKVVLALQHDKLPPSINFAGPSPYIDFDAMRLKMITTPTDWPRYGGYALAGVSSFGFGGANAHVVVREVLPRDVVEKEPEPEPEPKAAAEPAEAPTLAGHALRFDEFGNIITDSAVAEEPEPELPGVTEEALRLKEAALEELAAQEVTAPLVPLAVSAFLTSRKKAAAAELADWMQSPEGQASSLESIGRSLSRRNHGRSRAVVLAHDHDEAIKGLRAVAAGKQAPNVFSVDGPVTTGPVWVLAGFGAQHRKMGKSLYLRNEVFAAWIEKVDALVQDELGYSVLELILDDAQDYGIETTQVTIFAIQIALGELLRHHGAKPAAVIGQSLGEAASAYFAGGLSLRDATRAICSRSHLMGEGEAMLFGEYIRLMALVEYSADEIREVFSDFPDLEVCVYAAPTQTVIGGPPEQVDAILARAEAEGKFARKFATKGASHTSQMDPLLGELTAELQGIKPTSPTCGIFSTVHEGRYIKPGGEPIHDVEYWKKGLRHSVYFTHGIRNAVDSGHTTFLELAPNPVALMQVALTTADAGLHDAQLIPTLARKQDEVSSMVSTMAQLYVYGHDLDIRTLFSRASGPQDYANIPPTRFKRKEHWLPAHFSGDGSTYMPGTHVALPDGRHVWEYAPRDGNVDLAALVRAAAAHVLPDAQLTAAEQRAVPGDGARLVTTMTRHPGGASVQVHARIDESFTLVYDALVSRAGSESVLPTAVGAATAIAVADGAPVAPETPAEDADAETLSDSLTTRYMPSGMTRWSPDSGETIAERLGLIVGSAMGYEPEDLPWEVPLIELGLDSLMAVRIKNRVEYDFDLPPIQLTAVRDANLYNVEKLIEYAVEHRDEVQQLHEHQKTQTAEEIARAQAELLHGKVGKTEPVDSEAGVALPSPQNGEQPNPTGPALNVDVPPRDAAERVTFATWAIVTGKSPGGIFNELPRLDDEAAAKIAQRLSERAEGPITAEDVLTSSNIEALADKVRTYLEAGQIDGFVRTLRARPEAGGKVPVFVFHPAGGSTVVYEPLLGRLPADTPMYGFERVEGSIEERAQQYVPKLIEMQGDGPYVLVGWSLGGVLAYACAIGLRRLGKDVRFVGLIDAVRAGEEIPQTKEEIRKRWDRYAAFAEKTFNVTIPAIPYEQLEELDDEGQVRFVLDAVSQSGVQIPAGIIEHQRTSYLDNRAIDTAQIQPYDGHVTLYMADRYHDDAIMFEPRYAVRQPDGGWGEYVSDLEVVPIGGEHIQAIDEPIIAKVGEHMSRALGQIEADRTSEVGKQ
UniProt A4I591, 1-473: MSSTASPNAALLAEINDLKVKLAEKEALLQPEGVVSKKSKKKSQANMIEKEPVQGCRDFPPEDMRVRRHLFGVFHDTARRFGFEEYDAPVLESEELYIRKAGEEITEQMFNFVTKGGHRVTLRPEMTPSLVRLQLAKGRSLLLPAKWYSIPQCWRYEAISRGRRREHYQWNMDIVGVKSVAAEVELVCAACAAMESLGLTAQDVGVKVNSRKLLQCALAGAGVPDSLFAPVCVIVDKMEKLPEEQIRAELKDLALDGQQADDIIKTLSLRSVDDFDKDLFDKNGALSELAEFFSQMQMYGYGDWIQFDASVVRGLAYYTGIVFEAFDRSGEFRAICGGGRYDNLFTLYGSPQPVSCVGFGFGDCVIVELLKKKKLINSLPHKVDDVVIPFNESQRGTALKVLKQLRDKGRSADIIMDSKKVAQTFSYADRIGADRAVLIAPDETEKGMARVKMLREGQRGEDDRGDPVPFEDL
UniProt P9WPC5, whole entry: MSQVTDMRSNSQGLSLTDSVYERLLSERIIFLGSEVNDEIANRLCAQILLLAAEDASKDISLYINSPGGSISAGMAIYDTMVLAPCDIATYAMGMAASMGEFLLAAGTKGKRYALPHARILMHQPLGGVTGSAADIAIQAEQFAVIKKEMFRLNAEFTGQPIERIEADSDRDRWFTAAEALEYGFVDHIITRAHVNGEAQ
UniProt P9WPC3, whole entry partner: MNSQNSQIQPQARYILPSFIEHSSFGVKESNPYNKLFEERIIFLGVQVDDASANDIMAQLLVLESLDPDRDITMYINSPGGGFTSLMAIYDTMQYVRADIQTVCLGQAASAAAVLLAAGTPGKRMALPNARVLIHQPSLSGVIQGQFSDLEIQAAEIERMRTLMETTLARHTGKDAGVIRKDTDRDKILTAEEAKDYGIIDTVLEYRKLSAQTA
UniProt P9WNZ1, whole entry: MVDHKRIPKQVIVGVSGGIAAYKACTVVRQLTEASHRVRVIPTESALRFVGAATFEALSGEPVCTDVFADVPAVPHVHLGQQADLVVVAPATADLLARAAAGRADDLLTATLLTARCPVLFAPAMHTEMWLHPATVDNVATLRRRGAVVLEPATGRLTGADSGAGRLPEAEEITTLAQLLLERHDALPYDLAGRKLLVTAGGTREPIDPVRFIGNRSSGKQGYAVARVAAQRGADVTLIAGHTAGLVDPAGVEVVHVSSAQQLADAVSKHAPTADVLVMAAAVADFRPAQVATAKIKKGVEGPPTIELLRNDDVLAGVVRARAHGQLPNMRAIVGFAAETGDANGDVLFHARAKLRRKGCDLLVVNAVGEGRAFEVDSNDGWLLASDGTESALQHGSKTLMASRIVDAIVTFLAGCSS

Measurements from “University of Dundee, Small-Polar-MMV Screening Library” (2021), ChEMBL document CHEMBL3988442.

A: 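Polyketide synthase Pks13, Mycobacterium tuberculosis (UniProt I6X8D2). Enzyme assay of the thioesterase domain of polyketide synthase 13; the read-out is not stated. Concentration: 30 µM. The record gives no direction; the compounds picked for IC50 retests had high values, so higher reads as stronger inhibition. Of about 67,000 compounds tested this way, about 300 (0.46%) reached 50% or more in at least one test.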
B: 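Enzyme assay of histidyl-tRNA synthetase; the read-out is not stated. Target: Histidine-tRNA ligase, Leishmania infantum (UniProt A4I591). Tested at 30 µM. The record gives no direction; compounds that gave an IC50 in retests scored well above the rest, so higher reads as stronger inhibition. The assay is labelled LdHisRS but filed under L. infantum. Of about 69,000 compounds tested this way, about 410 (0.6%) reached 50% or more in at least one test.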
C: 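Cell assay of Leishmania donovani living inside macrophages; the read-out is not stated. Compounds at 30 µM. The record gives no direction; compounds that gave an IC50 in retests scored well above the rest, so higher reads as stronger inhibition. About 69,000 compounds were tested under these conditions; 1.5% (about 1,000) showed 50% or more at least once.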
D: 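Protease assay of ClpP1P2, read by the AMC dye that it sets free. Target: ClpP1P2, Mycobacterium tuberculosis (UniProt P9WPC5 and UniProt P9WPC3). Concentration: 50 µM. Higher reads as stronger inhibition, judged from the few compounds that gave an IC50. Most other retested compounds had strongly negative values. Of about 69,000 compounds tested this way, about 10 (0.015%) reached 50% or more in at least one test.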
E: 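Assay of Toxoplasma gondii numbers, read through their beta-galactosidase reporter with a colour substrate. Tested at 10 µM. Higher reads as fewer parasites (inferred from which compounds were picked for retests). Size under these conditions: about 67,000 compounds, about 260 of them at 50% or above in at least one test.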
F: 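Coenzyme A biosynthesis protein CoaBC, Mycobacterium tuberculosis (UniProt P9WNZ1). Enzyme assay of CoaBC with a phosphate dye (Biomol Green) read at 650 nm. Tested at 30 µM. Higher reads as stronger inhibition, judged from the few compounds that gave an IC50. Most strong results did not repeat in a second test. About 67,000 compounds were tested under these conditions; 0.06% (about 40) showed 50% or more at least once.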

Results are given as percent effect. How 0% and 100% were set is not recorded. Most values in the screen are low, and negative values occur. The compounds are a random part of those screened. Two or more numbers in one place are separate tests of the same structure; such repeats can differ widely.

{"compound": "Cc1cc(C)n(CC2CCCN2C(=O)c2ccc3c(c2)OCO3)n1", "stereo": "stereo not shown", "A": -10.23, "B": 10.81, "C": -10.45, "D": -5.317, "E": 0.2812, "F": 1.828}
{"compound": "CC(=O)N1CCOC(c2c(C(=O)O)sc3ccccc23)C1", "stereo": "stereo not shown", "A": 4.368, "B": 8.511, "C": 31.31, "D": 9.96, "E": -6.137, "F": 2.797}
{"compound": "Cc1ccc(NC2CCN(C(=O)c3n[nH]c4ccccc34)CC2)nn1", "A": -4.971, "B": 12.16, "C": -10.07, "D": -10.53, "E": 0.9104, "F": 4.824}
{"compound": "Cc1cn[nH]c1C1COCCN1Cc1c[nH]cn1", "stereo": "stereo not shown", "A": -20.67, "B": 2.797, "C": 25.73, "D": -19.76, "E": -8.015, "F": -6.295}
{"compound": "CCCOc1ccc(CNc2cncc(-n3cccn3)n2)cc1", "A": 34.6, "B": 17.31, "C": 46.97, "D": -50.3, "E": 19.23, "F": 3.345}
{"compound": "COC(=O)[C@@H](NC(=O)c1coc(COc2cccc(F)c2F)n1)C(C)C", "A": -0.8221, "B": -3.279, "C": -23.02, "D": -10.82, "E": 8.142, "F": -2.046}
{"compound": "COc1ccc([C@@H](C)n2ccnc2-c2cc3n(n2)CCCNC3)cc1", "A": -9.423, "B": 5.376, "C": -2.437, "D": 11.16, "E": -4.26, "F": 1.34}
{"compound": "O=C(O)C(F)(F)F.O=C(O)C(F)(F)F.[H][C@@]12CCCO[C@]1([H])[C@H](N(C)C(C)C)CN(Cc1cc(C)on1)C2", "C": "-1.2 & 4.443", "E": 7.118}
{"compound": "[H][C@@]12CS(=O)(=O)C[C@]1([H])N(C(=O)c1cc(C(C)C)no1)CCN2C(=O)C(C)C", "C": 14.65, "E": 4.852}
{"compound": "COc1ccc(-c2cc(C3CCNCC3)ccn2)cc1.Cl", "C": 6.438, "E": 6.525}
{"compound": "COc1cc2c(c(OC)c1OC)CCN(CCn1cncn1)CC2", "A": 6.192, "B": 4.082, "C": -8.914, "D": -6.778, "E": 20.74, "F": -2.149}
{"compound": "CN(CC(=O)NCCC#N)C(c1ccccc1)c1ccc(F)cc1", "stereo": "stereo not shown", "A": -14.76, "B": 6.25, "C": 16.73, "D": 3.327, "E": 0.05359, "F": -3.968}
{"compound": "CCOCC1CN(C2CCCC2)Cc2cnn(CC3CCOCC3)c21", "stereo": "stereo not shown", "A": -23.98, "B": 22.58, "D": -16.79, "F": 3.083}
{"compound": "CN(CCc1ccncc1)C(=O)C1CSCN1C(=O)CC(C)(C)C", "stereo": "stereo not shown", "A": -35.13, "B": 7.937, "C": 7.911, "D": -3.221, "E": 4.071, "F": 2.593}

2 of the entries, repeated:

compound	A	B	C	D	E	F
CN(CCc1ccncc1)C(=O)C1CSCN1C(=O)CC(C)(C)C (stereo not shown)	-35.13%	7.937%	7.911%	-3.221%	4.071%	2.593%
CC(=O)N1CCOC(c2c(C(=O)O)sc3ccccc23)C1 (stereo not shown)	4.368%	8.511%	31.31%	9.96%	-6.137%	2.797%